Test results reported in US6403625B1, “Fluorescent labeling reagents” (Daiichi Pure Chemicals Co., Ltd., priority 1998, dated 2002).

Assay: Reaction of compound (6) with reactive functional groups (hydroxyl, thiol); recovery of unreacted compound

In the case of CCN1C(=CC=CC=CC=CC2=[N+](CCCCCC(=O)N3CCSC3=S)c3ccc4ccccc4c3C2(C)C)C(C)(C)c2c1ccc1ccccc21.[Cl-] [ICG-ATT (6), 2-[7-(1,3-Dihydro-1,1-dimethyl-3-ethylbenz[e]indolin-2-ylidene)-1,3,5-heptatrienyl]-1,1-dimethyl-3-[[6-[(1,3-thiazolidine-2-thion)-1-yl]-6-oxo]hexyl]-1H-benz[e]indolium Chloride], the “recovered compound (6) after treatment with 2-phenylethyl alcohol” value (acetonitrile, 0° C. 30 minutes then room temperature 30 minutes) is reported as 96% and the “recovered compound (6) after treatment with 2-phenylethylthiol” value (treated similarly to 2-phenylethyl alcohol) is reported as 96%.
